Assay results taken from the supplement of paper PMC12889115.
The list shows a part of the results. Values are raw readings; no control value is given beside them.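 In the initial screen, polymyxin B was used at a concentration that permeabilizes Salmonella's outer membrane but not its inner membrane. Maximum growth was set by DMSO wells with or without polymyxin B. Since plates varied, data were ranked per plate, and compounds giving the lowest OD600 advanced as hits.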

System: Salmonella enterica serovar Typhimurium SL1344
Assay: bacterial growth OD600 after 18 h with compound and polymyxin B; higher = more bacterial growth (less inhibition)
Settings: 50 µM, Mueller-Hinton broth

Row | Structure (SMILES) | bacterial growth OD600 (polymyxin B 0.75 µg/mL) | bacterial growth OD600 (polymyxin B 1 µg/mL)
1 | CCCn1cc(CN2CCCC(C(=O)c3ccc(Cl)cc3)C2)c(C)n1 (stereo unspecified) | 0.559 | 
2 | CC(Cc1cccnc1)NC1CCN(c2ccc(NC(=O)CCc3ccccc3)cc2)CC1 (stereo unspecified) | 0.72 | 
3 | O=C1O[C@@H]2CN(C3CCSCC3)C[C@@H]2N1CCc1ccccn1 | 0.824 | 
4 | CO[C@H]1[C@H](NC(=O)c2ccncc2)c2ccccc2C12CCN(C(=O)C1C(C)(C)C1(C)C)CC2 | 0.703 | 
5 | COc1ccc(C(=O)C2CCCN(Cc3ccccc3C)C2)c(OC)c1 (stereo unspecified) |  | 0.957
6 | CC(Cc1cncs1)NC1CCN(c2cccc(NS(=O)(=O)c3ccc(F)cc3)c2)CC1 (stereo unspecified) | 0.863 | 
7 | CCC(=O)N[C@@H]1c2ccccc2C2(CCN(C(=O)C3C(C)(C)C3(C)C)CC2)[C@H]1OCc1cccnc1 | 0.01 | 
8 | COCCN(C(=O)c1cn(Cc2ccccn2)cc(C(=O)NC2CCCCCCC2)c1=O)C(C)C | 0.862 | 
9 | Cc1ccsc1C(=O)C1CCCN(Cc2ccc(C#CC(C)(C)O)s2)C1 (stereo unspecified) |  | 0.733
10 | Cc1cc(Cl)ccc1C(=O)C1CCCN(C2CSCCSC2)C1 (stereo unspecified) |  | 0.657
11 | COc1ccc2cc(C(=O)C3CCCN(CC4CC4)C3)ccc2c1 (stereo unspecified) |  | 0.753
12 | O=c1cccc2n1C[C@H]1C[C@@H]2CN(Cc2nc(N3CCOCC3)c3cc(Cl)ccc3n2)C1 | 0.81 | 
13 | Cc1ccc(CN2CCN(Cc3ccccc3)CC2CCO)cc1 (stereo unspecified) |  | 0.888
14 | COc1ccc(C(=O)C2CCCN(Cc3cccc(F)c3)C2)c(OC)c1 (stereo unspecified) |  | 0.932
15 | CCOC(=O)C1(CCc2ccccc2)CCN(Cc2ccco2)CC1 |  | 0.84
16 | CC1(C)C(C(=O)N2CCC(C3(c4cccnc4)NC(=O)N(CCc4cccs4)C3=O)CC2)C1(C)C (stereo unspecified) | 0.794 | 
17 | COc1cc(CN2CCCC(C(=O)c3cccc(Cl)c3)C2)cc(OC)c1 (stereo unspecified) |  | 0.391
18 | O=C(NCc1cc(C(F)(F)F)ccc1F)c1cn(C2CCCCC2)nn1 |  | 0.774
19 | O=C(Cc1cccnc1)N1CCCC(N2CCN(c3ccccc3F)CC2)C1 (stereo unspecified) |  | 0.985
20 | COc1c(C)cc(C(=O)C2CCCN(Cc3ccc(CO)o3)C2)cc1C (stereo unspecified) |  | 0.877
21 | COc1ccccc1Cn1cc(C(=O)NCCSC)c(=O)c(C(=O)NCCC(C)C)c1 | 0.63 | 

Single values from the list:
`COCCN(C(=O)c1cn(Cc2ccccn2)cc(C(=O)NC2CCCCCCC2)c1=O)C(C)C` | bacterial growth OD600 (polymyxin B 0.75 µg/mL): 0.862
`O=C(Cc1cccnc1)N1CCCC(N2CCN(c3ccccc3F)CC2)C1` (stereo unspecified) | bacterial growth OD600 (polymyxin B 1 µg/mL): 0.985

(further entries)

Row | Structure (SMILES) | bacterial growth OD600 (polymyxin B 0.75 µg/mL) | bacterial growth OD600 (polymyxin B 1 µg/mL)
22 | O=C1O[C@@H]2CN(C3CCCC3)C[C@@H]2N1CCc1ccccn1 |  | 1.26
23 | CC(Cc1ccccn1)NC1CCN(c2ccc(NC(=O)CCc3ccccc3)cc2)CC1 (stereo unspecified) | 0.822 | 
24 | Cc1ccc(CN2C[C@H]3OC(=O)N(Cc4ccccn4)[C@H]3C2)o1 | 0.843 | 
25 | CC(C)CNC1COc2ccccc2C1 (stereo unspecified) | 0.845 | 
26 | Cc1nc(CC(=O)N(C)C2CCCN(CCc3ccccc3)C2)cs1 (stereo unspecified) |  | 1.05
27 | O=C(NC1CC1)c1cn(Cc2ccccc2)cc(C(=O)N2CC[C@@H]3CCCC[C@H]3C2)c1=O | 0.896 | 
28 | COc1c(C)cc(C(=O)C2CCCN(Cc3cccc(C)n3)C2)cc1C (stereo unspecified) |  | 0.891
29 | CCOC(=O)C1(CCc2ccccc2)CCN(Cc2cccc3c2OCO3)CC1 |  | 0.806
30 | COc1c(C)cc(C(=O)C2CCCN(C3CCCC3)C2)cc1C (stereo unspecified) |  | 0.879
31 | O=C(NCc1cc(F)cc(F)c1)c1cn(C2CCCCC2)nn1 |  | 0.704
32 | O=C(Cc1ccc2c(c1)OCO2)N1CCCC(N2CCN(c3ccc(F)cc3)CC2)C1 (stereo unspecified) |  | 0.891
33 | Cc1oc(-c2cccc(F)c2F)nc1CN1C[C@@H]2C[C@H](C1)c1cccc(=O)n1C2 |  | 0.895
34 | Cc1ccsc1C(=O)C1CCCN(Cc2cccc(F)c2)C1 (stereo unspecified) |  | 0.788
35 | COCCNC(=O)c1cn(CCC(C)C)cc(C(=O)N[C@H](C)c2ccc(OC)cc2)c1=O | 0.898 | 
36 | COc1ccc(OC)c(CN2CCCC(C(=O)c3cccc(Cl)c3)C2)c1 (stereo unspecified) |  | 0.771
37 | CC(C)(C)CNC1COc2ccccc2C1 (stereo unspecified) | 0.851 | 
38 | CC(Cc1cncs1)NC1CCN(c2ccc(CC(=O)NCCc3cccc(F)c3)cc2)CC1 (stereo unspecified) | 0.842 | 
39 | CC(Cc1cccnc1)NC1CCN(c2ccc(NC(=O)Cc3cccc(Cl)c3)cc2)CC1 (stereo unspecified) | 0.879 | 
40 | CCN(CC)C(=O)c1cn(Cc2cccc(OC)c2)cc(C(=O)NCc2ccc(C)cc2)c1=O | 0.849 | 
41 | CCn1cc(CN2CCCC(C(=O)c3ccc(Cl)cc3C)C2)c(C)n1 (stereo unspecified) |  | 0.767
